In patent publication US9815841B2, “Compounds” (GLAXOSMITHKLINE INTELLECTUAL PROPERTY DEVELOPMENT LIMITED, priority 2014, dated 2017):
Some of these results come from one statement about several compounds together.

By UniProt entry, the sequences of proteins in these tests, tags left out. Where a name states a change or a piece, a line headed by the entry shows the natural chain unless it says otherwise.
UniProt Q5S007: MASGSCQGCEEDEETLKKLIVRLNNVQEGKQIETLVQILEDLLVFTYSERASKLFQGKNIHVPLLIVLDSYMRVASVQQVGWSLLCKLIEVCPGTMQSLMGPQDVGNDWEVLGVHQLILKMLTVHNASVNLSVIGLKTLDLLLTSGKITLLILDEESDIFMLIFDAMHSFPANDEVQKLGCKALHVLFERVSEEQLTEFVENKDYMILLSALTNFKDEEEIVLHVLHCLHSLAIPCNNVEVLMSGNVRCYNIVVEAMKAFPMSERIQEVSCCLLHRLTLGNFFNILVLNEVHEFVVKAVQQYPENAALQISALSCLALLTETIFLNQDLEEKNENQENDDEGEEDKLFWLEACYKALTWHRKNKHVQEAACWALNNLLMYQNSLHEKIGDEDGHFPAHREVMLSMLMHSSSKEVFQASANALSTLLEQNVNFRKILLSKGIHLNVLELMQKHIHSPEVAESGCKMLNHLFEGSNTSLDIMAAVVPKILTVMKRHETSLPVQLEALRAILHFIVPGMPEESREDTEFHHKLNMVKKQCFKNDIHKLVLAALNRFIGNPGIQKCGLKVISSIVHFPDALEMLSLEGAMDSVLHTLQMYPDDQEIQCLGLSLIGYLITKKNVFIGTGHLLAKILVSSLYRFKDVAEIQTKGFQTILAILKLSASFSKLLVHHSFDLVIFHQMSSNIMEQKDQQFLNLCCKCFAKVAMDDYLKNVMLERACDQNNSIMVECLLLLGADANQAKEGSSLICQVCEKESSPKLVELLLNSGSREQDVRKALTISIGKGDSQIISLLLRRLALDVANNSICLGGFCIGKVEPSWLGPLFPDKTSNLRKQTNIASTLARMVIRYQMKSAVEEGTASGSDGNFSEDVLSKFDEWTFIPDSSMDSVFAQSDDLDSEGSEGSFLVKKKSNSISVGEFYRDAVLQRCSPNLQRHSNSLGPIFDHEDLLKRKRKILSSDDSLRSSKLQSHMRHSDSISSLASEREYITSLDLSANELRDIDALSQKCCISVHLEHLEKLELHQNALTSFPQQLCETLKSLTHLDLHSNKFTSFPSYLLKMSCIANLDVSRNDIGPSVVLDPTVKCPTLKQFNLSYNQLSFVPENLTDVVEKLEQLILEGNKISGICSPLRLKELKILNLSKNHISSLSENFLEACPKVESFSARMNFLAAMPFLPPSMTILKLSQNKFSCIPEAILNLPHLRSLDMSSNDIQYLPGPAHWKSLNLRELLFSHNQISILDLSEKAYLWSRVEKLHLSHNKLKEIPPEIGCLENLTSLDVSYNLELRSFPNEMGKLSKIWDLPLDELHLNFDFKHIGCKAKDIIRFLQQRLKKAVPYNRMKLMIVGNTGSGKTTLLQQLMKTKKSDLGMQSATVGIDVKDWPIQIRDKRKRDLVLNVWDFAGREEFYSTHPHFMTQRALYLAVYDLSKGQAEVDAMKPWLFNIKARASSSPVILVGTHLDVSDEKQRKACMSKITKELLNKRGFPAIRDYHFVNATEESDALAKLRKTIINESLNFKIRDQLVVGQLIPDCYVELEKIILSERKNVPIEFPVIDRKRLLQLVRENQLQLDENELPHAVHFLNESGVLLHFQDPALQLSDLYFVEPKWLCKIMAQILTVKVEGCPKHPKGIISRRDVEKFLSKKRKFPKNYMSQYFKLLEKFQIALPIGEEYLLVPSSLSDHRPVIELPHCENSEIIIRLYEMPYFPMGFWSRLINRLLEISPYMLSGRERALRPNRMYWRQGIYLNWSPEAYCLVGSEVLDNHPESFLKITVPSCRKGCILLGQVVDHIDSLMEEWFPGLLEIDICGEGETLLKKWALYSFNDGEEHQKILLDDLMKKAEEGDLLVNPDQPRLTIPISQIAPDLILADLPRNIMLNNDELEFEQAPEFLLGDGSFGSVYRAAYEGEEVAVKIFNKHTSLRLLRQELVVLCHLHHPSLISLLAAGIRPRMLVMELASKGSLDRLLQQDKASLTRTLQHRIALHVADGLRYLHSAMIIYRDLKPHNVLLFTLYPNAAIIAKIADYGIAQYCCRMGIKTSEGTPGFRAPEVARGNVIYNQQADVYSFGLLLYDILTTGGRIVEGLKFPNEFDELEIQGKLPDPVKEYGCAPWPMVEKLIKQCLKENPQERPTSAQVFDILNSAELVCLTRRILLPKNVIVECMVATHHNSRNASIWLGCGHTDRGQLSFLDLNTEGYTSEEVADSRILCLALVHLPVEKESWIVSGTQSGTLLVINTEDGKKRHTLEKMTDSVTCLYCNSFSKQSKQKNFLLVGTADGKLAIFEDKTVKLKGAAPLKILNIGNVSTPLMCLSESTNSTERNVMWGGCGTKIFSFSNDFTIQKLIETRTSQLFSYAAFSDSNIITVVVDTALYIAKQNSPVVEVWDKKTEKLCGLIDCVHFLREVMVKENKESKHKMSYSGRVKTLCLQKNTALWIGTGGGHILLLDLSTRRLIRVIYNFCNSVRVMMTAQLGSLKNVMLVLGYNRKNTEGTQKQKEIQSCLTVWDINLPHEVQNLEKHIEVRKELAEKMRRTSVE

Biological target: T1, recombinant full length LRRK2 over-expressed in SH-SY5Y cells (Homo sapiens, UniProt Q5S007)
T1 construct: A BacMam virus expressing full length recombinant LRRK2 was purchased from Invitrogen; host or cells: SH-SY5Y human neuroblastoma cells transduced with BacMam LRRK2 virus
Assay: Recombinant cellular LRRK2 AlphaScreen assay (LRRK2 Ser935 phosphorylation)
Assay type: cell-based
Conditions: SH-SY5Y cells with BacMam LRRK2, 60 minutes compound incubation
Experimental: Recombinant Cellular LRRK2 AlphaScreen Assay
A BacMam virus expressing full length recombinant LRRK2 was purchased from Invitrogen and amplified by inoculation of SF-9 cells at MOI 0.3 for 4-5 days in Sf-900 III SFM medium supplemented with 3% fetal bovine serum. Infected cell cultures were then centrifuged at 2000 g for 20 minutes, viral supernatant titer determined by anti-gp64 plaque assay and stored at 4° C.
Affinity-purified anti-phospho LRRK2 Ser935 sheep polyclonal antibody (Dzamko et al., 2010, Biochem. J. 430: 405-413) was biotinylated by standard methods (PerkinElmer). Anti-LRRK2 rabbit polyclonal antibody was purchased from Novus Biologicals. AlphaScreen Protein A IgG Kit (including acceptor and donor beads) was purchased from Perkin Elmer.
SH-SY5Y cells were grown in DMEM/F12 medium with 10% dialysed fetal bovine serum and harvested by treatment with 0.5% trypsin-EDTA for 5 minutes at […] followed by centrifugation at 1000 rpm for 4 minutes. The cell pellet was resuspended in Opti-MEM reduced serum media (Invitrogen) at 200,000 cells/ml and mixed with the BacMam LRRK2 virus at MOI=50. 50 μl cell solutions were then dispensed to each well of a 384-well plate and incubated at 37° C., 5% CO2 for 24 hours.
Serial dilutions of test compounds were prepared in Opti-MEM reduced serum media (Invitrogen) and 5.6 ul transferred from compound plate to cell assay plate to achieve a top final assay concentration of 10 uM. DMSO was used in certain wells as controls. Cells were incubated at 37° C., 5% CO2 for 60 minutes. The medium was then removed and cells lysed by addition of 20 ul cell lysis buffer (Cell Signaling Technology) and incubation at 4° C. for 20 minutes. 10 ul of antibody/acceptor bead mix [(1/1000 biotinylated-pS935 LRRK2 antibody, 1/1000 total-LRRK2 antibody, 1/100 Acceptor beads in AlphaScreen detection buffer (25 mM Hepes (pH 7.4), 0.5% Triton X-100, 1 mg/ml Dextran 500 and 0.1% BSA)] was then added to each well and plates incubated for 2 hours at ambient temperature in the dark. 10 μl of donor beads solution (1/33.3 donor beads in AlphaScreen detection buffer) was then added to each well. Following incubation for a further 2 hours at ambient temperature in the dark, plates were read on an EnVision™ plate reader at emission 520-620 nm with excitation 680 nm. Dose response curve data was based on sigmoidal dose-response model.

Recombinant cellcular LRRK2 alphaScreen assay (pIC50), ≥ 5.0:
CCOc1nc(Nc2ccc(C(=O)N3CCCC4(COC4)C3)cc2OC)nc2[nH]ccc12 [Example E44, (4-((4-ethoxy-7H-pyrrolo-[2,3-d]pyrimidin-2-yl)amino)-3-methoxyphenyl)(2-oxa-6-azaspiro-[3.5]nonan-6-yl)methanone]
COc1cc(C(=O)N2CCN(C)C[C@H]2C)ccc1Nc1nc(OCC2CC2)c2c(C)c[nH]c2n1 [Example E54, (R)-(4-((4-(cyclopropylmethoxy)-5-methyl-7H-pyrrolo-[2,3-d]-pyrimidin-2-yl)amino)-3-methoxyphenyl)(2,4-dimethylpiperazin-1-yl)methanone]
COc1cc(C(=O)N2CCN(C)CC2)ccc1Nc1nc(OCC2CC2)c2c(C)c[nH]c2n1 [Example E55, (4-((4-(cyclopropylmethoxy)-5-methyl-7H-pyrrolo-[2,3-d]-pyrimidin-2-yl)amino)-3-methoxyphenyl)(4-methylpiperazin-1-yl)methanone]
CCOc1nc(Nc2ccc(C(=O)N3CCOCC3)cc2OC)nc2[nH]nc(C)c12 [Example E57, (4-((4-ethoxy-3-methyl-1H-pyrazolo-[3,4-d]-pyrimidin-6-yl)amino)-3-methoxyphenyl)(morpholino)methanone]
COc1cc(C(=O)N2CCOCC2)ccc1Nc1nc(OCC2CC2)c2cn[nH]c2n1 [Example E58, (4-((4-(cyclopropylmethoxy)-1H-pyrazolo-[3,4-d]pyrimidin-6-yl)amino)-3-methoxyphenyl)(morpholino)methanone]
CCOc1nc(Nc2ccc(C(=O)N3CCOCC3)cc2OC)nc2[nH]cc(C#N)c12 [Example E59, 4-ethoxy-2-((2-methoxy-4-(morpholine-4-carbonyl)phenyl)amino)-7H-pyrrolo[2,3-d]pyrimidine-5-carbonitrile]
CCOc1nc(Nc2ccc(C(=O)N3CCOCC3)cc2OC(C)C)nc2[nH]cc(C#N)c12 [Example E60, 4-ethoxy-2-((2-isopropoxy-4-(morpholine-4-carbonyl)-phenyl)amino)-7H-pyrrlo-[2,3-d]-pyrimidine-5-carbonitrile]
CCOc1nc(Nc2ccc(C(=O)N3CCOCC3)cc2OC)nc2[nH]cc(C(F)(F)F)c12 [Example E62, (4-((4-ethoxy-5-(trifluoromethyl)-7H-pyrrolo-[2,3-d]-pyrimidin-2-yl)amino)-3-methoxyphenyl)(morpholino)methanone]
CCOc1nc(Nc2ccc(C(=O)N3[C@H](C#N)C[C@@H]4C[C@@H]43)cc2OC)nc2[nH]ccc12 [Example E66, (1 S,3S,5S)-2-(4-((4-ethoxy-7H-pyrrolo-[2,3-d]pyrimidin-2-yl)amino)-3-methoxybenzoyl)-2-azabicyclo-[3.1.0]-hexane-3-carbonitrile]
